System: normal human dermal fibroblasts (NHDF)
Assay: Identification of biological processes involved (DAVID / Gene Ontology functional annotation of modulated genes)
Settings: 2 mg/ml versus Control
[1] = Term: Cholesterol biosynthetic process
[2] = Term: Cholesterol metabolic process
[3] = Term: Extracellular matrix organization
[4] = Term: Oxidation-reduction process

`N[C@H]1CCCN(CC(F)(F)[C@]2(O)O[C@H](CO)[C@H](O)[C@H](O)[C@H]2O)C1=O` [Compound 6] was tested, and the “%” value [1] was 0.01072%, the Count [1] was 15 and the “%” value [2] was 0.009291%. The Count [2] was 13, the “%” value [3] was 0.02358% and the Count [3] was 33. The “%” value (Term: Lipid metabolic process) was 0.01572%, the Count (Term: Lipid metabolic process) was 22 and the “%” value [4] was 0.03859%. The Count [4] was 54, the “%” value (Term: Response to wounding) was 0.007147% and the Count (Term: Response to wounding) was 10. The “%” value (Term: Wound healing) was 0.007861% and the Count (Term: Wound healing) was 11.

From patent US20240124510A1, “Cyclic Glycoaminoacid Derivatives” (TFCHEM, priority 2021, published 2024)
